These are yes or no findings as the source states them, for the method shown. In cells and extracts the contact can be indirect. Some results given as binding are weak or reduced against the parent protein; the word gives no strength.
Biological target: γ-secretase activating protein (GSAP) (mouse (endogenous in N2A)) (UniProt Q3TCV3)
Experiment: co-IP; N2A-APPswe cell lysates (50 mM HEPES, 150 mM NaCl, 5 mM MgCl2, 5 mM CaCl2, CHAPSO diluted to 0.25%); 5 μg anti-GSAP antibody for 3 hr at room temperature, then Dynabeads M-280 sheep anti-rabbit IgG overnight at 4 °C; blotted for 5LO or 12-15LO

Protein sequences, listed by entry. Tags and fused reporters are not part of them. Lines headed by an entry give the natural chain unless they say otherwise; changes in a name come on top.
UniProt Q3TCV3: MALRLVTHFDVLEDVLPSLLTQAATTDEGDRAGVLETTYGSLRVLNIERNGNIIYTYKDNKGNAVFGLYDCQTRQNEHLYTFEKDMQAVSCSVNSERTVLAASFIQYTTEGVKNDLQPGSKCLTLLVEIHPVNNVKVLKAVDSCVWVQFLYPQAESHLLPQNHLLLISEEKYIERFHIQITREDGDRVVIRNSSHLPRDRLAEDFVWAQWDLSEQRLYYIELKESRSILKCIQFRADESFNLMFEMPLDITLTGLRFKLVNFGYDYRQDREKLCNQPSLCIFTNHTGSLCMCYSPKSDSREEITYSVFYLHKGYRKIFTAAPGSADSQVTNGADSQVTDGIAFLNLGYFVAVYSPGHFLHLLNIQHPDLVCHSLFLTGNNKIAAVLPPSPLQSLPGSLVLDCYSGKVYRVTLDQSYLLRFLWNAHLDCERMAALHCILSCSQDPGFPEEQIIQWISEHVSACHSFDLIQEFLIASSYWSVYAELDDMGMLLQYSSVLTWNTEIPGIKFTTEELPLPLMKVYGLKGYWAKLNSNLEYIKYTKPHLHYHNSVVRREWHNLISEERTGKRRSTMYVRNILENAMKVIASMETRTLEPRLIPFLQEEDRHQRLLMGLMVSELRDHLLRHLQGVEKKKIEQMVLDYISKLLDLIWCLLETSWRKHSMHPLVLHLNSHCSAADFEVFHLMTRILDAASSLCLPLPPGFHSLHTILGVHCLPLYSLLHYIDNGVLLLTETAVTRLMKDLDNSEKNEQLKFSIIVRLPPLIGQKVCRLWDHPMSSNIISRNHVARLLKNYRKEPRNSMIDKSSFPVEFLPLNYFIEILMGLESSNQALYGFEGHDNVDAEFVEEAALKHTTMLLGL

B1: 5-Lipoxygenase (5LO) (enzyme, UniProt P09917 1-674)
chain: MPSYTVTVATGSQWFAGTDDYIYLSLVGSAGCSEKHLLDKPFYNDFERGAVDSYDVTVDEELGEIQLVRIEKRKYWLNDDWYLKYITLKTPHGDYIEFPCYRWITGDVEVVLRDGRAKLARDDQIHILKQHRRKELETRQKQYRWMEWNPGFPLSIDAKCHKDLPRDIQFDSEKGVDFVLNYSKAMENLFINRFMHMFQSSWNDFADFEKIFVKISNTISERVMNHWQEDLMFGYQFLNGCNPVLIRRCTELPEKLPVTTEMVECSLERQLSLEQEVQQGNIFIVDFELLDGIDANKTDPCTLQFLAAPICLLYKNLANKIVPIAIQLNQIPGDENPIFLPSDAKYDWLLAKIWVRSSDFHVHQTITHLLRTHLVSEVFGIAMYRQLPAVHPIFKLLVAHVRFTIAINTKAREQLICECGLFDKANATGGGGHVQMVQRAMKDLTYASLCFPEAIKARGMESKEDIPYYFYRDDGLLVWEAIRTFTAEVVDIYYEGDQVVEEDPELQDFVNDVYVYGMRGRKSSGFPKSVKSREQLSEYLTVVIFTASAQHAAVNFGQYDWCSWIPNAPPTMRAPPPTAKGVVTIEQIVDTLPDRGRSCWHLGAVWALSQFQENELFLGMYPEEHFIEKPVKEAMARFRKNLEAIVSVIAERNKKKQLPYYYLSPDRIPNSVAI
binding: binds

B2: 12-15LO (enzyme, UniProt P39654 1-663)
chain: MGVYRIRVSTGDSVYAGSNNEVYLWLIGQHGEASLGKLFRPCRNSEAEFKVDVSEYLGPLLFVRVQKWHYLKEDAWFCNWISVKGPGDQGSEYTFPCYRWVQGTSILNLPEGTGCTVVEDSQGLFRNHREEELEERRSLYRWGNWKDGTILNVAATSISDLPVDQRFREDKRLEFEASQVLGTMDTVINFPKNTVTCWKSLDDFNYVFKSGHTKMAERVRNSWKEDAFFGYQFLNGANPMVLKRSTCLPARLVFPPGMEKLQAQLDEELKKGTLFEADFFLLDGIKANVILCSQQYLAAPLVMLKLQPDGQLLPIAIQLELPKTGSTPPPIFTPLDPPMDWLLAKCWVRSSDLQLHELQAHLLRGHLVAEVFAVATMRCLPSVHPVFKLLVPHLLYTMEINVRARSDLISERGFFDKVMSTGGGGHLDLLKQAGAFLTYSSLCPPDDLAERGLLDIDTCFYAKDALQLWQVMNRYVVGMFDLYYKTDQAVQDDYELQSWCQEITEIGLQGAQDRGFPTSLQSRAQACHFITMCIFTCTAQHSSIHLGQLDWFYWVPNAPCTMRLPPPKTKDATMEKLMATLPNPNQSTLQINVVWLLGRRQAVMVPLGQHSEEHFPNPEAKAVLKKFREELAALDKEIEIRNKSLDIPYEYLRPSLVENSVAI
binding: no binding
